At least one compound was matched to its structure with a doubt left.
What was measured:
Assay type in all cases: in vivo, mouse
LCAD = assay: cIEF immunoassay PTM profile of LCAD in liver tissues; settings: C57BL/6J+F liver vs control C57BL/6J
Protocol: (§1) C57BL/6 J and UPase1-TG mice were fed a lean diet that provides 4.6 kcal/g (22% by calorific value from fat, 23% from protein, and 55% from carbohydrates; PicoLab Mouse Diet, Catalog No 5058, LabDiet, Brentwood, Mo., USA). C57BL/6 J+LD mice were fed a lean diet for 16 weeks. C57BL/6 J+F mice were fed a lean diet supplemented with fenofibrate (400 mg/kg per day) for 5 days. C57BL/6 J+HFD mice were fed a high-fat diet that provides 5.24 kcal/g (60% from fat, 20% from protein, and 20% from carbohydrates) for 16 weeks (Catalog No D12492, Research Diets Inc, New Brunswick, N.J., USA). C57BL/6 J mice served as a control for C57BL/6 J+LD, UPase1-TG, and C57BL/6 J+F mice. On the other hand, C57BL/6 J+LD mice served as a control for C57BL/6 J+HFD mice. All animal studies were performed in conformity with the Public Health Service Policy on Humane Care and Use of Laboratory Animals and with the approval of the Animal Care and Use Committees at Nevada Cancer Institute, Desert Research Institute, and Touro University Nevada.
(§2) Approximately 500 mg of frozen liver tissues was added to 300 μl of RIPA buffer (Cat. No. 8990, Life Technologies, Grand Island, N.Y. 14702) containing proteinase and phosphatase inhibitors and homogenized twice at 6 seconds duration. […]

GSK3β = assay: cIEF immunoassay PTM profile of GSK3β in liver tissues
PFK1 = assay: cIEF immunoassay PTM profile of PFK1 in liver tissues; settings: C57BL/6J+F liver, normalized to pI 7.3 peak
Protocol: as §1, §2

ChREBP = assay: cIEF immunoassay PTM profile of ChREBP in liver tissues; settings: C57BL/6J+F liver vs control C57BL/6J
Protocol: as §1, §2

EHHADH = assay: cIEF immunoassay PTM profile of EHHADH in liver tissues; settings: C57BL/6J+F liver vs control C57BL/6J
FABP1 = assay: cIEF immunoassay PTM profile of FABP1 in liver tissues; settings: C57BL/6J+F liver
FABP5 = assay: cIEF immunoassay PTM profile of FABP5 in liver tissues; settings: C57BL/6J+F liver
HMGCS2 = assay: cIEF immunoassay PTM profile of HMGCS2 in liver tissues; settings: C57BL/6J+F liver vs C57BL/6J
Protocol: as §1, §2

With `CC(C)OC(=O)C(C)(C)Oc1ccc(C(=O)c2ccc(Cl)cc2)cc1` [fenofibrate] the “LCAD broad peak pI 5.5 to 6.5 (acetylated isoforms) intensity” value (LCAD) was “higher intensity”, the “LCAD narrow peak pI 6.9 (glycosylated isoform) intensity” value (LCAD) was “significantly higher” and the “lysine acetylation of GSK3β, area under the curve” value (GSK3β; C57BL/6J+F liver vs control mice) was “more than two-fold reduction”. The “GSK3β peak intensity at pI 6.2 (acetylated isoform)” value (GSK3β; C57BL/6J+F liver, fenofibrate 400 mg/kg per day 5 days, normalized to pI 9.3 peak) was “nearly suppressed”, the “PFK1 peak intensity at pI 6.9” value (PFK1) was “nearly suppressed” and the “pI profile for ChREBP from pI 7.2 to 8.2” value (ChREBP) was “substantially reduced”. The “EHHADH phosphorylation and acetylation, areas under the curve” value (EHHADH) was “substantial increases”, the “PTM of FABP1, areas under the curve from pI 5.0 to 8.3” value (FABP1) was “substantial increases” and the “FABP5 left shoulder around pI 5.5” value (FABP5) was “nearly suppressed”. The FABP5 phosphorylation (FABP5) was “clearly suppressed” and the “HMGCS2 peaks at pI 6.0 and 6.3” value (HMGCS2) was “increased”.

— patent US10591478B2, “Methods for molecular classification of fatty liver by high-throughput protein post-translational modifications” (ROSEMAN UNIVERSITY OF HEALTH SCIENCES, priority 2015, dated 2020)
